# About 45 (2%) of roughly 3,000 compounds showed an effect of 50% or more. The list shows a part of the results.
# Tested on: MOLM1 and UCSD/AML1 (averaged)
# Assay: cell viability relative to DMSO control (POC); higher = less growth inhibition
# Details: 1 µM; 72 h
# Protocol: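 Primary viability screen in the 3q26 EVI1-high AML cell lines MOLM1 and UCSD/AML1, compounds at 1 uM for 72 h. ATP CellTiter-Glo read-out given as percent viable over DMSO control (POC), averaged over duplicates. This mapping covers the TimTec NDL-3000 natural derivative library, whose compounds are identified by TimTec catalogue codes (ST...).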
row,SMILES,cell viability [%]
1,Cc1ccc(-n2c(SCC(=O)Nc3c(C)cc(C)cc3C)nc3c(=O)[nH]cnc32)cc1,104
2,CC(=O)On1cc(F)c(=O)n(CC2CO2)c1=O (centres undefined),85.8
3,COc1ccc(C2NC(C(=O)O)Cc3c2[nH]c2ccccc32)cc1COC(=O)COc1ccc(Cl)cc1Cl (centres undefined),85.4
4,O=C(Cn1c(=O)cc(C(=O)N2CCOCC2)c2ccccc21)Nc1cccc(Cl)c1,91.7
5,COC(=O)c1ccccc1NC(=O)CSc1nc2c(=O)[nH]cnc2n1-c1ccc(C)cc1,98.2
6,CCOc1cc(C2NC(=O)NC(C)=C2C(=O)OCC(F)(F)F)ccc1O (centres undefined),83.8
7,Cc1ccc2occ(-c3nc(-c4ccccc4)c(-c4ccccc4)[nH]3)c(=O)c2c1,91.7
8,O=C(Cn1c(=O)cc(C(=O)N2CCc3ccccc3C2)c2ccccc21)Nc1ccccc1F,105
9,CN(C)c1n[nH]c(=O)[nH]c1=O,88.1
10,COc1cc(C(=O)NCCOc2ccccc2-c2ccccc2)cc(OC)c1OC,94.6
11,COc1ccc(CNC(=O)C(=O)Nc2ccccc2C)cc1,92.7
12,CCOC(=O)N1CCCc2cc(NCCC(=O)c3ccc(OC)c(OC)c3)ccc21,95.3
13,CCOc1ccccc1C1C2CCCCC2(O)CCN1CC(=O)NCc1ccco1 (centres undefined),87.9
14,COC(=O)C1=C(C)NC(SC)=C(C#N)C1c1cc(OC)c(OC)c(OC)c1 (centres undefined),18.3
15,COC(=O)C1=CN(Cc2ccc(F)cc2)C=C(C(=O)OC)C1c1cc(OC)c(OC)c(OC)c1,103
16,CC1(C)CC(C(CC(=O)O)Cc2ccccc2)CCO1 (centres undefined),92.2
17,CCCNC(=O)c1cc(=O)n(CC(=O)Nc2ccc(F)cc2F)c2ccccc12,94.6
18,CCc1cccc(C)c1NC(=O)c1ccc(OC)c(OC)c1,101
19,Cc1nc(NC(=O)c2ccc3c(c2)OCO3)sc1C,88.6
20,COCCOC(=O)c1c(C)n(CCCNc2ccc(Cl)cc2[N+](=O)[O-])c2c1cc(O)c1ccccc12,88.3
21,COc1ccc(C(=O)CCNc2ccccc2C(=O)NC2CC2)cc1OC,102
22,Cc1ccc2c(CN3CCN(CC(=O)Nc4cc(Cl)ccc4C)CC3)cc(=O)oc2c1,102

# Taken from above:
# cell viability [%] with O=C(Cn1c(=O)cc(C(=O)N2CCOCC2)c2ccccc21)Nc1cccc(Cl)c1 reads 91.7
# cell viability [%] with CCCNC(=O)c1cc(=O)n(CC(=O)Nc2ccc(F)cc2F)c2ccccc12 reads 94.6

# Following part:

row,SMILES,cell viability [%]
1,O=C(/C=C/c1ccccc1O)c1cc(O)ccc1O,74.3
2,COCCOC(=O)c1c(C)n(CCNc2ccc(C(F)(F)F)cc2[N+](=O)[O-])c2c1cc(O)c1ccccc12,108
3,CCOC(=O)Cn1ncc2ccccc2c1=O,93.1
4,CCC(C)OC(=O)C1=C(C)NC2=C(C(=O)CC(c3ccc(Cl)cc3)C2)C1c1cc(OC)c(OC)c(OC)c1 (centres undefined),85.8
5,COc1ccc(OC)c(NC(=O)Cn2c(=O)cc(C(=O)N3CCCCC3)c3ccccc32)c1,94.7
6,COc1cc(/C=N\Nc2nc(-c3ccc(Br)cc3)cs2)cc(OC)c1OC,100
7,COc1ccc(NC(=O)Cc2ccccc2OC)c(OC)c1,88.7
8,Cc1ccc2c(c1)N(C(=O)CSc1nc3ccccc3c(=O)[nH]1)CCO2,73.8
9,Cc1ccc(NC(=O)CSc2nc3c(=O)[nH]cnc3n2C)cc1C,94.8
10,CN1CCN(Cc2c(O)ccc3cc(-c4nc5ccccc5s4)c(=O)oc23)CC1,101
11,COC(=O)c1cc(OC)c(OC)c(OC)c1NS(=O)(=O)c1cc2c(cc1C)n(C)c(=O)n2C,108
12,Cc1cc2c(C(C)C)c(O)c(O)c(C=NCCOc3ccc4c(c3)CCC4)c2c(O)c1-c1c(C)cc2c(C(C)C)c(O)c(O)c(C=NCCOc3ccc4c(c3)CCC4)c2c1O,102
13,CCOC(=O)c1cc2cc(Br)ccc2oc1=O,108
14,CC1(C)CC(=O)C2=C(C1)Nc1ccccc1N(C(=O)c1ccccc1)C2c1ccc(Cl)cc1Cl (centres undefined),113
15,COc1ccc(C(=O)CSc2nnc(-c3ccc(OC)c(OC)c3)o2)cc1OC,96.6
16,O=C(CCNc1cccc(Cl)c1)c1cc2ccccc2oc1=O,115
17,CCOC(=O)Nc1ccc2c(c1)N(C(=O)CCN1CCOCC1)c1ccccc1S2,92.3
18,C=CCOc1cc(=O)oc2cc3occc3cc12,98.9
19,O=c1cc(O)c2cc(Cl)cc(Cl)c2o1,108
20,O=C([O-])[C@H](O)[C@H](O)[C@@H](O)[C@H](O)[C@H](O)CO.O=C([O-])[C@H](O)[C@H](O)[C@@H](O)[C@H](O)[C@H](O)CO.[Ca+2],96.3
21,Cc1cc(C)c2c(CN3CCN(c4ccccn4)CC3)cc(=O)oc2c1,97.6
22,N#CC1=C(N)Oc2cc(O)ccc2C1c1ccccc1 (centres undefined),104

row,SMILES,cell viability [%]
1,COCCOC(=O)C1=C(C)NC2=C(C(=O)CCC2)C1c1cc(Cl)c(O)c(OC)c1 (centres undefined),108
2,N#CC1=C(N)Oc2n[nH]c(-c3ccc(F)cc3)c2C1c1ccc(O)cc1 (centres undefined),99.7
3,NC(Cc1ccc([N+](=O)[O-])cc1)C(=O)O (centres undefined),108
4,COc1ccc2[nH]c3c(c2c1)CCNC3c1cccc(F)c1 (centres undefined),80.9
5,COc1cc2c(cc1OC)C(CCCO)NCC2 (centres undefined),97.6
6,O=C(c1cc(-c2ccc(Cl)c(Cl)c2)nc2ccccc12)N1CCc2ccccc2C1,104
7,CNc1nc(C(N)=O)c(NC(=O)c2ccc3c(c2)OCO3)s1,95.1
8,COc1ccc(C=O)cc1CSc1nc2c(=O)[nH]cnc2n1C,95.8
9,CCC(Sc1nc2c(=O)[nH]cnc2n1C)C(=O)Nc1ccc(OC)c(Cl)c1 (centres undefined),101
10,CCN(CC)C(=O)c1cc(=O)n(CC(=O)Nc2ccccc2Cl)c2ccccc12,103
11,COc1cc(C(=O)NC(Cc2ccccc2)C(=O)O)cc(OC)c1OC (centres undefined),101
12,O=C1C2CC=CCC2C(=O)N1Cc1cc(=O)[nH]c2ccccc12 (centres undefined),102
13,Cc1ccccc1C(=O)OCC1CCCN2CCCCC12.O.O.O.O.O.O.O=[N+]([O-])O.O=[N+]([O-])O.[Co] (centres undefined),104
14,CCOc1ccc2[nH]c(=O)c(C(c3nnnn3C(C)(C)C)N3CCN(Cc4ccccc4)CC3)cc2c1 (centres undefined),95
15,CCOc1cc2c(cc1OCC)C(c1cccc(F)c1F)NCC2 (centres undefined),86.1
16,CCOC(=O)CC(=O)c1cc(OC)c(OC)c(OC)c1,94.4
17,CCCCCOC(=O)C1=C(C)N(C)C(=O)NC1c1cc(Cl)c(O)c(OC)c1 (centres undefined),94.5
18,O=c1cc(-c2ccccc2Cl)oc2c(Br)cc(Cl)cc12,112
19,Cc1nc2c(nc(SCc3nc(-c4ccc(Cl)cc4)oc3C)n2C)c(=O)[nH]1,102
20,CCOc1c(C=O)cccc1OC,104

# — the supplement of paper PMC11150407
